Assay results from PMC7819943, “Rice protein-binding microarrays: a tool to detect cis-acting elements near promoter regions in rice”.
The list shows a part of the results.

By UniProt entry, the sequences of proteins in these tests, tags left out.
UniProt Q0JBA9, entry or part of it: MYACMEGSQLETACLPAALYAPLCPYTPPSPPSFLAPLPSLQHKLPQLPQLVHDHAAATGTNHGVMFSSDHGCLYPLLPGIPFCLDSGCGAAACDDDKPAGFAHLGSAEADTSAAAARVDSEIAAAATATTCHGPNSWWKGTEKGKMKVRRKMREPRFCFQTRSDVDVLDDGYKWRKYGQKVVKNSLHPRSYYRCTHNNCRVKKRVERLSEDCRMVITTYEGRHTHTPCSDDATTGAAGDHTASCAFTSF

What follows are sequences tested against OsWRKY34 (Oryza sativa, UniProt Q0JBA9 1-250) (assay: protein-binding microarray (RPBM); PBS, 2% BSA, 51.3 ng/ul salmon testes DNA, 50 uM zinc acetate, 200 nM TF, 25 C, 1 h; high values mean tight binding). Conditions: protein: recombinant; tags: N-terminal polyhistidine and DsRed monomer fusion (pET32a); label: CyDye5-dUTP incorporated in the synthesized complementary strand; 3' TTTTT single-stranded linker to array surface; dsDNA, one strand shown.
Method in brief: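 For the binding signal, per-feature fluorescence intensity was read in arbitrary units on an Axon 4000B scanner. Before scanning, a 2% BSA-blocked custom Agilent array made double-stranded with Cy5-dUTP was washed after 1 h at 25 °C with 200 nM protein and 50 µM zinc acetate. The proteins were Ni–NTA-purified transcription factors with N-terminal polyhistidine and DsRed fusions, expressed in E. coli BL21-CodonPlus.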

Sequence	binding signal
CCCGATCCCATGTCACCGACACCCTCCGTTTCTAAATATTCGGAGTCACCTAGTGCAG	11600 fluorescence intensity (a.u.)
GTGTTAGACGAAATGTCTCACCCAGCATCGCACCACTTTCCGGAGTCACCTAGTGCAG	8030 fluorescence intensity (a.u.)
AATTAATCCGTCATTAGAGTTTATTGTAGCACCACATTGTCGGAGTCACCTAGTGCAG	8160 fluorescence intensity (a.u.)
GTTGATGTTCGCCGACCCCACGATGATGTACTCGTCGTCCCGGAGTCACCTAGTGCAG	8770 fluorescence intensity (a.u.)
TCGCGTGCTGCTTCTCGCTACCTCGTTGCAGTCACTACACCGGAGTCACCTAGTGCAG	8440 fluorescence intensity (a.u.)
TCATACGACACTACGCCTGGTCGACCTTATTATTACCAACCGGAGTCACCTAGTGCAG	14800 fluorescence intensity (a.u.)
CGTACGCGCCCACGCCCACTCCCACGCCTTCGCGCGCGCGCGGAGTCACCTAGTGCAG	9220 fluorescence intensity (a.u.)
TTTTGCTTGCAACGTTTCACCACTCGTCTTATTCAAAATTCGGAGTCACCTAGTGCAG	8750 fluorescence intensity (a.u.)
GTACTTCCTACTGTTACATATGTCATCGTCATCTTCTCCACGGAGTCACCTAGTGCAG	8090 fluorescence intensity (a.u.)
ATCCTTTTTCATTTTACCTGTTTTATTTACTTTAGTTAGTCGGAGTCACCTAGTGCAG	15600 fluorescence intensity (a.u.)
GACCAATGTGCGCCCAAGATTGATCTGCCACCGTCCGTGACGGAGTCACCTAGTGCAG	9240 fluorescence intensity (a.u.)
GCACCAGAAATGGCCATGGTCAGCTTCAGAAATTCATGACCGGAGTCACCTAGTGCAG	8230 fluorescence intensity (a.u.)
GATTCAGCGTATAAGTACCCCTAGTGTTCACCTCTCTTCTCGGAGTCACCTAGTGCAG	8470 fluorescence intensity (a.u.)
TCTCCACTGTGCATACGCTTCTCTCTTTCCGCCACGGCGACGGAGTCACCTAGTGCAG	8210 fluorescence intensity (a.u.)
ATAAAACAAATGGTCAAACGTTAGTCGAAAAGTCAACGGCCGGAGTCACCTAGTGCAG	12300 fluorescence intensity (a.u.)
TTTTCGTGTTCGGGTTTGGGTTTGAGTGCCGCATCTGCAACGGAGTCACCTAGTGCAG	21500 fluorescence intensity (a.u.)
TCGCCGTCGCCCCTGAGTTCGTGTTCTGCTGTTGAACCGCCGGAGTCACCTAGTGCAG	9890 fluorescence intensity (a.u.)
GCAGCCTCGCTCAGCTCGATCTCTCTCTCGTCTCGCCATGCGGAGTCACCTAGTGCAG	8530 fluorescence intensity (a.u.)
AGAGACAGAGATCAGTGACACGCATCTACCACTAAAATTTCGGAGTCACCTAGTGCAG	8440 fluorescence intensity (a.u.)
GGGCTCGCCGCCGTTGACCCGCAGGGCGTCGGAGCACGGTCGGAGTCACCTAGTGCAG	8140 fluorescence intensity (a.u.)
GGGAAAATGGCGAGCATTCTTTTTTTTTTCTCTCGGGGTTCGGAGTCACCTAGTGCAG	10300 fluorescence intensity (a.u.)

Individual results from the results shown:
Value for AATTAATCCGTCATTAGAGTTTATTGTAGCACCACATTGTCGGAGTCACCTAGTGCAG under binding signal: 8160 fluorescence intensity (a.u.)
Value for GACCAATGTGCGCCCAAGATTGATCTGCCACCGTCCGTGACGGAGTCACCTAGTGCAG under binding signal: 9240 fluorescence intensity (a.u.)

(listing goes on)

Sequence	binding signal
CATACAGCTGAGCTGATGATGGTTATCGTTCTGAACTTCTCGGAGTCACCTAGTGCAG	8550 fluorescence intensity (a.u.)
GCCCCGTTGGCCAAATCTCTCTCCCTCACTTCAGTTCCGCCGGAGTCACCTAGTGCAG	9100 fluorescence intensity (a.u.)
CTCTGTTTCTAAATATTTGACACCATTGACTTTTTAGCATCGGAGTCACCTAGTGCAG	10900 fluorescence intensity (a.u.)
GGTTACGCGTCCATTTCATCTCGAGATTTTTCTCCTCTTCCGGAGTCACCTAGTGCAG	11100 fluorescence intensity (a.u.)
TTTTAATGTATGACGCCGTTGACTTTTTATACGTTTGACCCGGAGTCACCTAGTGCAG	32200 fluorescence intensity (a.u.)
TTTTTCCCCTTTCTTCTCCTTTCTCTGTTATCCGTGCAGACGGAGTCACCTAGTGCAG	9020 fluorescence intensity (a.u.)
GAACAACAACATGCCGCACGTGCGTATATATATATATATCCGGAGTCACCTAGTGCAG	10800 fluorescence intensity (a.u.)
CACACATTGTTAACATCACAGTGTACTAGCCATCTACTGTCGGAGTCACCTAGTGCAG	8600 fluorescence intensity (a.u.)
ACCCACCATTATTCTCCTCCGGGCACCACGTCGAACACCTCGGAGTCACCTAGTGCAG	8820 fluorescence intensity (a.u.)
ACCGGCGGCCACTCATCGATCCACTACCCCACTGCACTCGCGGAGTCACCTAGTGCAG	9480 fluorescence intensity (a.u.)
CTCTACTTTTCCTGGGCCCTAGGCCATCGCACTTCTTGCCCGGAGTCACCTAGTGCAG	8990 fluorescence intensity (a.u.)
GATCTCAATCCGACCAGGGACGGGGCCTCCTCGCATTTCCCGGAGTCACCTAGTGCAG	8060 fluorescence intensity (a.u.)
GTATTAGGACCTATTTCGGGAAACTTTTAGTAGCTGTATCCGGAGTCACCTAGTGCAG	8340 fluorescence intensity (a.u.)
CCCATCCCAGCCTGCAGAGCCGCCGCCGCCGCCGCAAGCGCGGAGTCACCTAGTGCAG	8270 fluorescence intensity (a.u.)
TTGTTGCTCTACCAATTGTTTCTCTTTTTACGGTGTATTCCGGAGTCACCTAGTGCAG	10000 fluorescence intensity (a.u.)
ATGTGTATATTAGCATTATGATTTATGTCCTTATACTCCTCGGAGTCACCTAGTGCAG	8200 fluorescence intensity (a.u.)
GTCGCCGTAAACTTCGCCGTTTCCTGTAATTTCCTGCTTCCGGAGTCACCTAGTGCAG	9160 fluorescence intensity (a.u.)
CAGTGTCCGTTTTCTCCGACAAACTCGGCGTGGCCACAGTCGGAGTCACCTAGTGCAG	9840 fluorescence intensity (a.u.)
ATCCCTTGCCAAAACTGCAATATCATATCTAGCTAAACTACGGAGTCACCTAGTGCAG	11000 fluorescence intensity (a.u.)
GCCTCCACGTCATCCTTTTTCTCCAAACCGTTGGATCTAACGGAGTCACCTAGTGCAG	11400 fluorescence intensity (a.u.)
GTAGCTTCGGCTTTGAGATTCGTGCAGGGGTGGGATCCTGCGGAGTCACCTAGTGCAG	8420 fluorescence intensity (a.u.)

Sequence	binding signal
GATCACTTGGTCTGACCCTTTTTTCGCTACTCCGTTAAGCCGGAGTCACCTAGTGCAG	10100 fluorescence intensity (a.u.)
TAAGACGAATGGTCAAACATGTAAGAAAAAGTCAACGGTACGGAGTCACCTAGTGCAG	12900 fluorescence intensity (a.u.)
AGCGTCGCGGTGGCTTTGTGGGAGGGGAGTAGTAGCGGTACGGAGTCACCTAGTGCAG	10000 fluorescence intensity (a.u.)
ATCTCCCGCGGTTTCGATTTGGGTTTATTTGGGCGGTGGGCGGAGTCACCTAGTGCAG	18800 fluorescence intensity (a.u.)
CCGCCGATCCATCGCCGCCGCTGCCGCCGTTTTCTATTGTCGGAGTCACCTAGTGCAG	8670 fluorescence intensity (a.u.)
GCACACTGGCACCCGATTTGTTGGTTTCTTACCCCTCCTACGGAGTCACCTAGTGCAG	9690 fluorescence intensity (a.u.)
GAGTTTTTGCTGGAATTGGTTAAATCCTGAACTTATTTTTCGGAGTCACCTAGTGCAG	8180 fluorescence intensity (a.u.)
AATCTTCAGTGGCTGGGCCACTTACATGTTGGCCTCACATCGGAGTCACCTAGTGCAG	10100 fluorescence intensity (a.u.)
TGGCAAATGTCATTGTTTGTTGACTGTATTTTAATGGTATCGGAGTCACCTAGTGCAG	8250 fluorescence intensity (a.u.)
TGAAGGTGCTGTGTTTTGAGTGCTTGGGATGAGCTGCGTGCGGAGTCACCTAGTGCAG	8480 fluorescence intensity (a.u.)
TGGTCGGCGATTCTAGGGTTAGGGTTAGGGTTTTTCTACTCGGAGTCACCTAGTGCAG	12200 fluorescence intensity (a.u.)
AACCTGCATTGTTCTTTCCTTCTCAATTGTTGCAATTGTACGGAGTCACCTAGTGCAG	11400 fluorescence intensity (a.u.)
GTTCATCTCTTCACTGTACGAATTTACTAGTTTTTTTCTTCGGAGTCACCTAGTGCAG	8730 fluorescence intensity (a.u.)
GCCACCACCACCTCCCTCCACCACCATGCCGTCACCATCCCGGAGTCACCTAGTGCAG	8270 fluorescence intensity (a.u.)
CTCCAGCATTACCTGTCCCCACATGTCAGTGACCTCACCCCGGAGTCACCTAGTGCAG	8260 fluorescence intensity (a.u.)
GACCTTTTTTCCTTTCGTCTGACTGACACATCAGTCAAAACGGAGTCACCTAGTGCAG	11200 fluorescence intensity (a.u.)
CGTGCGTGATTGTATTGTATTCTATTTTTTTTAAAAAAAACGGAGTCACCTAGTGCAG	10100 fluorescence intensity (a.u.)
CTTGTGGCTTCTAGTTCATTTTCTGGTTTCTACAACTACACGGAGTCACCTAGTGCAG	8240 fluorescence intensity (a.u.)
GATAGGCTCAATCTCACAATCACTATATGCATATATAATACGGAGTCACCTAGTGCAG	9420 fluorescence intensity (a.u.)
CCTCTCGGTTTCTTCACCCTTATCACCTCGTTTTCTTTCCCGGAGTCACCTAGTGCAG	10000 fluorescence intensity (a.u.)
CACCCCACCCACAAATTAAACACACCACCCTCAATATATACGGAGTCACCTAGTGCAG	9620 fluorescence intensity (a.u.)

Sequence	binding signal
CCGTTGGCTTTTTTAAACATGTTTGACCGTTTATTTTATTCGGAGTCACCTAGTGCAG	14100 fluorescence intensity (a.u.)
TCATCGCCATTCCTAACTCATCTCCGTTCCATACTCTTCTCGGAGTCACCTAGTGCAG	12700 fluorescence intensity (a.u.)
CACCATGTACACATTCTCTCACAGTGCATGCATAAATTAACGGAGTCACCTAGTGCAG	8710 fluorescence intensity (a.u.)
CCGCCGCCTCCGGCCGCCGTACCAGCCTCACCTCGCTTCGCGGAGTCACCTAGTGCAG	8980 fluorescence intensity (a.u.)
TTTTAATTCTTGCTCCTGATTGAATCGCATCCCTCGACCACGGAGTCACCTAGTGCAG	9240 fluorescence intensity (a.u.)
AAACAGGTCACTACTATCCTCCATATATATATATTTTAGACGGAGTCACCTAGTGCAG	9110 fluorescence intensity (a.u.)
GACGGGCGGGGCCCGACGGGGAGGAGGTAGGCGGGCTTGGCGGAGTCACCTAGTGCAG	11700 fluorescence intensity (a.u.)
ATTAAATTCTTATCCATTCATCTCTCTCCTTTTATTCACACGGAGTCACCTAGTGCAG	9180 fluorescence intensity (a.u.)
GTCCTTTTTCTTACTGCTGTACATGTATGAAACTTGCACGCGGAGTCACCTAGTGCAG	9350 fluorescence intensity (a.u.)
ATCATCCAATCCCTCTCGCGCTTTTTCATGTGGTTTCTCTCGGAGTCACCTAGTGCAG	10700 fluorescence intensity (a.u.)
GATTAATTTGCCATTGGATCCAAGCACACTCCTAGGTAAGCGGAGTCACCTAGTGCAG	8910 fluorescence intensity (a.u.)
TTCACCGGCCGCGCGCTGTCTGTAGAACTCCCATACATGACGGAGTCACCTAGTGCAG	8640 fluorescence intensity (a.u.)
ATAGATGACGCCGTTGATTTTTTCTCACATGTTTGACCGTCGGAGTCACCTAGTGCAG	15600 fluorescence intensity (a.u.)
TCCAGTAGCCGCGCGTGCCCACGACGCACCACCCACACACCGGAGTCACCTAGTGCAG	9880 fluorescence intensity (a.u.)
GTTCTCTTTTTTGTTTGTCTTTCCTAGTGCAATATGTTTCCGGAGTCACCTAGTGCAG	10700 fluorescence intensity (a.u.)
AATTCCCAAACTCCCGCCGCCGCCGCCGCCGCCATCGATGCGGAGTCACCTAGTGCAG	8250 fluorescence intensity (a.u.)
GTATGTCCGAGATTTAGTGTTACACGTCAGATCCAACACACGGAGTCACCTAGTGCAG	8570 fluorescence intensity (a.u.)
GTGTTACCGTTGGCTTAGTTCACGCCTGACCATTTTTTTTCGGAGTCACCTAGTGCAG	12700 fluorescence intensity (a.u.)
GACCATAAAGTAGGCCGTGACTGACATTCAGTTGTTTTACCGGAGTCACCTAGTGCAG	8030 fluorescence intensity (a.u.)
CCCAACTTTTCCACAATCCACAGCCTACATACACCGAGCACGGAGTCACCTAGTGCAG	8300 fluorescence intensity (a.u.)
CATGTCGGCCCATGTGAAAGCCATCTTCGCTTTTCTCTCCCGGAGTCACCTAGTGCAG	8570 fluorescence intensity (a.u.)

Part of the list above, as comma-separated lines.
Sequence,binding signal
TTCACCGGCCGCGCGCTGTCTGTAGAACTCCCATACATGACGGAGTCACCTAGTGCAG,8640 fluorescence intensity (a.u.)
ATAGATGACGCCGTTGATTTTTTCTCACATGTTTGACCGTCGGAGTCACCTAGTGCAG,15600 fluorescence intensity (a.u.)
TCCAGTAGCCGCGCGTGCCCACGACGCACCACCCACACACCGGAGTCACCTAGTGCAG,9880 fluorescence intensity (a.u.)
